These are yes or no findings as the source states them, for the method shown. A result given as binding can be weak or reduced; the word gives no strength.
Target: T1, Cub-OsPT4 (split-ubiquitin bait, pBT3-N) (rice (Oryza sativa)) (UniProt Q8H6H2)
T1 sequence: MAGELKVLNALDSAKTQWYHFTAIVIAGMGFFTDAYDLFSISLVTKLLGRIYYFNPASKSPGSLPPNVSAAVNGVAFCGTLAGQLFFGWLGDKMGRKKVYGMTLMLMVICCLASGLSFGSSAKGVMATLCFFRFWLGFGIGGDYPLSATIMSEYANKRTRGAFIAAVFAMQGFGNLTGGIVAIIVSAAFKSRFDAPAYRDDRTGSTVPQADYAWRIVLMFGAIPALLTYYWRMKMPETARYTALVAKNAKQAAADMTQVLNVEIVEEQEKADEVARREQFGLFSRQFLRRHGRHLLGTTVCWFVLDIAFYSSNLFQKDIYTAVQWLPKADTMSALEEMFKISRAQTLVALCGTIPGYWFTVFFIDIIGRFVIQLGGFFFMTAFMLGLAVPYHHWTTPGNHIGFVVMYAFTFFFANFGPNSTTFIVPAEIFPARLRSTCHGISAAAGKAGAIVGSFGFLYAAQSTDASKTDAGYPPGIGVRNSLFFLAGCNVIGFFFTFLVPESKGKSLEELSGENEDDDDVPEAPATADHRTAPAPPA
Assay: two-hybrid; split-ubiquitin yeast two-hybrid, DUAL membrane pairwise interaction kit (Dualsystems Biotech); OsPT4 as Cub bait (pBT3-N), OsAIPR2 as NubG prey (pPR3-N)

Amino acid sequences for entries named in this document (tags omitted). A change or cut given only in a name is not applied to a line headed by its entry.
UniProt B7ECY2: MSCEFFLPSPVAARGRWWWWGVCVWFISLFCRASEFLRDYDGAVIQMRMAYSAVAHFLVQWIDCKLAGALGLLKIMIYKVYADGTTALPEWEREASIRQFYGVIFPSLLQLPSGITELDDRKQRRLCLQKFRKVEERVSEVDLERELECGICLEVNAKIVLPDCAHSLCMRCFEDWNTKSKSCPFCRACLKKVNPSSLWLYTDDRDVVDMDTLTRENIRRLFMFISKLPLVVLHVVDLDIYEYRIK

binding: binds
Substance: NubG-OsAIRP2 (split-ubiquitin prey, pPR3-N) (from UniProt B7ECY2)
